Primary screen of a compound library

Amino acid sequences for entries named in this document (tags omitted).
UniProt E9BF75, entry or part of it: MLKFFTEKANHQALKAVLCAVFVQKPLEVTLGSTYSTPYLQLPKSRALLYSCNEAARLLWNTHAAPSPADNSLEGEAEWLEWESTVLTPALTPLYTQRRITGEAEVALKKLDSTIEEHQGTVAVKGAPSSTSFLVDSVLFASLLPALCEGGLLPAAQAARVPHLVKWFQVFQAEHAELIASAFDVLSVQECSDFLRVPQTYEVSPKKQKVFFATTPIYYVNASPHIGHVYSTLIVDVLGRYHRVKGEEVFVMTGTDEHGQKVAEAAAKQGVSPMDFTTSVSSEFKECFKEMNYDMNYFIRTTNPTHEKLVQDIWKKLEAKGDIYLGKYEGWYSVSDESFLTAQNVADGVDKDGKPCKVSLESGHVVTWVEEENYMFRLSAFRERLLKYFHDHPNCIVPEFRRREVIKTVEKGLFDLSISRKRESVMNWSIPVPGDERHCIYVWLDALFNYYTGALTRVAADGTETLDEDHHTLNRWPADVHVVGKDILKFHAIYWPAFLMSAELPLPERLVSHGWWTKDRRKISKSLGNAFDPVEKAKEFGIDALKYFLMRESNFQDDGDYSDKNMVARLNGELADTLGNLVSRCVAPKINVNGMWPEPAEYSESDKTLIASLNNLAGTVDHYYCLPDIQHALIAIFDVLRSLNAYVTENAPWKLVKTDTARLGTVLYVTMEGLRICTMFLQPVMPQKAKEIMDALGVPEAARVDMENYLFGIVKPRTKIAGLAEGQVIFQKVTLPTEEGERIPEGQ

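Methionyl-tRNA synthetase (putative), Leishmania donovani (UniProt E9BF75). Primary screen of methionyl-tRNA synthetase; the read-out is not stated. The test concentration is not given. Values are per cent inhibition. Size under these conditions: about 68,000 compounds, about 24 of them at 50% or above in at least one test.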

Results are percentages, as filed. The controls that fix the scale are not given in the record; negative values are as filed. This is an unselected part of the compounds tested.

Compound,Inhibition
O=C(NC[C@H]1OC[C@@H](NC2CCC2)[C@@H]1O)c1cccs1,5.495
O=C([C@H]1CCCO1)N1CCN(CCn2cccn2)c2ncccc2C1,17.05
CCOc1nnc(CN2CCN(CCOC)C(C)C2)s1 (centres undefined),6.366
CNC(=O)c1cccc(CNC2CCSc3c(Cl)cccc32)c1 (centres undefined),8.377
CCn1cc(CN2CCC3(CC2)c2ccccc2CC3O)cn1 (centres undefined),19.87
CN1CCN(Cc2cn3c(n2)CN(C(=O)N2CCCC2)CC3)CC1,12.7
O=C(c1ccc2ccccc2c1)C1CCCN(C(=O)Cn2cncn2)C1 (centres undefined),3.014
Cc1cn(-c2ccccc2)nc1NS(=O)(=O)c1cc(C(=O)O)cs1,-1.478
COc1cc2c(cc1CNCc1ccnc(-n3cccn3)c1)OC(C)C2 (centres undefined),15.33
Cc1cc(C(=O)NC2(c3ccc(Br)cc3)CC2)n(C)n1,13.53
c1cnc(-c2noc(C3CN(Cc4ccc5c(c4)CCO5)C3)n2)nc1,7.194
Cc1nc(O)cc([C@@H]2CN(S(=O)(=O)N(C)C)C[C@H]2c2ccccc2F)n1,15.31
CS(=O)(=O)N1Cc2nccn2CC(CN2CCCC2=O)C1 (centres undefined),16.31
CC(NC(=O)c1cnccn1)c1nnc2ccccn12 (centres undefined),7.102
Cc1cc(N2CCC(N(C)C(=O)c3sccc3C)CC2)nc(C)n1,16.86
CC(C)(C)CC(=O)NC[C@H]1OC[C@@H](NC2CCC(F)(F)CC2)[C@@H]1O,4.407
O=C(CC1CC1)N1CCC2(CC(=O)N(c3cccc(F)c3)C2)C1 (centres undefined),7.904
CCOc1ccc(NC(=O)N2CCOC(C(N)=O)C2)cc1Cl (centres undefined),17.18
COc1cc(Cl)ccc1C(=O)N1CCCC(n2nc(C)nc2C)C1 (centres undefined),8.169
Cn1nnc2cc(C(=O)N3CCC(Nc4cccnn4)CC3)ccc21,11.11
COc1ccc(CN2CC[C@H](O)[C@@H]2Cc2cnn(C)c2)cc1,9.453
CCCN(Cc1nc(-c2ccoc2)oc1C)CC1CCCO1 (centres undefined),15.46
COc1cc(CNC(C)Cn2cccn2)cc2c1OCO2 (centres undefined),11.56
Cc1ccc2c(c1)SCC(=O)N2CC(=O)N1CCCC1c1cc(C)on1 (centres undefined),2.41
COc1c(C2CCCN2C(=O)c2c(C)noc2C)c(C)nn1C (centres undefined),8.169
Cc1nnc(N2CCC(CN(C)C(C)C)CC2)c(C#N)c1C,7.639
CCn1c(N)nc2cc(C(=O)NCCc3sccc3C)cnc21,11.33
CCc1cnc(N)nc1NCCCN1CCCCC1CO (centres undefined),17.72
CCn1cc(-c2n[nH]c(=O)n2-c2ccc(OC)c(OC)c2)c(C)n1,11.19
c1ccc(N2CCc3ncnc(C4CC4)c3CC2)nc1,19.23
CCOCC(O)CN1CCN(C(=O)c2ccc(OC)cc2)CC1 (centres undefined),15.91
CCOc1ccc(NC(=O)N2CCNC(=O)C2)c(C(F)(F)F)c1,11.49
CC1=Nc2c(c(O)nn2C(C)C)C(c2cccnc2)S1 (centres undefined),8.115
CCSc1cc(C(=O)NCc2ccc(C(=O)NC)cc2)ccn1,11.38
O=C(Nc1ccc(Cl)cc1)c1nn(C2CCS(=O)(=O)C2)c2c1CCCC2 (centres undefined),10.76
CCN1CCCN(S(=O)(=O)c2cc3ccccc3o2)CC1,24.18
O=C(NCc1ccccc1CO)C1COc2ccccc21 (centres undefined),6.25
Clc1ccc(CNc2cnn(CCN3CCOCC3)c2)cc1Cl,7.606
Cc1cccc(CN2C[C@H]3OC(=O)N(CCCN4CCOCC4)[C@H]3C2)n1,18.54
COc1ccc2c(c1)CC(NCc1cccc(NC(C)=O)c1)CC2 (centres undefined),13.35
CSc1ccccc1NC(=O)C1CSc2ncc(C)c(=O)n2C1 (centres undefined),18.1
Cn1nnn(-c2ccc(NS(=O)(=O)c3ccc(Br)cc3)cc2)c1=O,11.51
CSc1ccc(C(=O)N2CC(=O)N(Cc3cccs3)CC(O)C2)cc1 (centres undefined),19.45
CC(c1cccc(Cl)c1)N1CCN(S(C)(=O)=O)CC1 (centres undefined),12.53
O=C(c1ccccc1)N1C[C@@H]2CC[C@H](C1)N(Cc1cc(F)ccc1Cl)C2,14.72
Cc1nc(CN(C)C2CCN(Cc3c(C)noc3C)C2)no1 (centres undefined),15.46
CN1CCCN(C[C@@H]2CN(C(=O)N3CCOCC3)C[C@@H]2CO)CC1,17.17
Cn1ccc(C(=O)N(CC(F)(F)F)c2cccc(Cl)c2)cc1=O,-5.923
NC(=O)CC1CCCCN1C(=O)Cc1cccc(Br)c1 (centres undefined),21.51
CNC(=O)c1cc2c(nc1NC(C)C)CCN(C(=O)NC(C)C)CC2,15.24
Cc1noc(C2CCN(C(=O)c3cc(Br)ccc3F)CC2)n1,0.3436
CCN1CCC(NC(=O)c2ccc(F)cc2I)CC1,17.85
COc1ccccc1CNC(C)c1ccc(-n2ccnc2)cc1 (centres undefined),8.541
Cn1ccnc1CN1CCN(CC(O)c2ccccc2)CC1 (centres undefined),13.16
Cn1cnc(S(=O)(=O)NCC2(O)CCc3ccccc3C2)c1 (centres undefined),7.246
CC(C)C1CN(S(=O)(=O)N(C)C)CCCN1Cc1ccc(F)cc1 (centres undefined),13.65
CC(C)(C)NC(=O)NC(=O)CN1C=Nc2ccccc2S1(=O)=O,15.43
CCOCC(O)CN1CCN(C(=O)c2cc(C)ccc2F)CC1 (centres undefined),12.5
CS(=O)(=O)c1ccc(CNC(=O)N2CCC(c3ccccc3)CC2)cc1,8.92
Cc1nc(NCCc2ccccc2)cc(C(=O)N2CCOCC2)n1,10.67
O=c1cc(C2CCNCC2)nc(CCc2ccccn2)[nH]1,1.25
Cc1nc(-c2ccccc2)n(CC(=O)N(C(C)C)C(C)C)n1,14.38
O=C1N(Cc2cccc(F)c2)CCC12CCN(c1ccccn1)CC2,13.45
Cc1cc(C)nc(Nc2nccnc2C2CCCN(CCO)C2)n1 (centres undefined),16.67
Cc1ccc(N2CCCc3sc(C(=O)NCC4CCCO4)nc32)nn1 (centres undefined),12.33
CC(CNC(=O)c1ccc(F)cc1Cl)N1CCCC1 (centres undefined),15.04
CN1CCCc2cc(CNC(=O)c3ccncc3)ccc21,7.639
CC(=O)N1CCCc2sc(C(=O)Nc3ccc(C)nc3)nc21,-5.263
Cc1ccsc1C(=O)N1CCC(Nc2cccnc2)CC1,20.25
Cc1cc(C)cc(CNC(C)c2c(C)nn(C)c2C)c1 (centres undefined),3.971
Clc1snnc1CN1CCCCC1Cn1cccn1 (centres undefined),9.859
CS(=O)(=O)CCn1ccc(NC(=O)Cc2c[nH]c3ccccc23)n1,14.87
CN(CCO)C[C@@H]1CN(Cc2ccccc2C#N)C[C@@H]1CO,6.452
O=C(NCc1ccccc1Cn1cncn1)N1CCCC1,5.584
COC(=O)c1ccc(N2CCN(Cc3csc(C)n3)CC2)nn1,25.27
O=S(=O)(Cc1cccc(F)c1)Nc1cc(Cl)ccn1,20.37
Cc1nn(-c2ncnc3[nH]cnc23)c2c1C(CC(C)C)CC(=O)N2 (centres undefined),19.45
Cc1cnn(CC(=O)NCC2(O)CCCc3ccccc32)c1 (centres undefined),5.694
Cc1cc(CNC(=O)c2cnoc2C)c(C)o1,15.99
CN(CCc1ccccn1)C(=O)CCC1CCCN(c2ncccn2)C1 (centres undefined),-1.875
Cc1cc(C(F)F)nn1C(C)C(=O)NCc1nccn1C (centres undefined),17.19
Cc1ccc2oc(=O)n(CCC(=O)N3CCC4(CN(C)C(=O)O4)C3)c2c1 (centres undefined),10.42
CCn1cnnc1CNC(=O)N(C)Cc1ccccc1OC,4.076
O=C1[C@H]2CN(Cc3ccoc3)C[C@H]2CN1Cc1cccnc1,10.48
c1cnc(N2CCOC3(COCCN(Cc4cc[nH]n4)C3)C2)nc1 (centres undefined),10.8
CC(C)(C)c1ncc(CNCC2CCCN2c2cccnn2)s1 (centres undefined),13.11
CCN(CC)C1(Cc2cc(CC(C)C)on2)COC1,14.29
O=C(c1ccoc1)N1CCC2(CC1)COC(COCc1ccccn1)C2 (centres undefined),-0.3436
CCNC(=O)NC1CN(CC(=O)NCc2ccccc2C)C[C@@H]1OC (some centres undefined),13.04
CCOc1ccc(C2SCC(=O)Nc3c2c(=O)[nH]n3C(CC)CC)cc1 (centres undefined),9.143
Cc1noc(CCCC(=O)NCC(c2ccco2)N2CCCCC2)n1 (centres undefined),6.529

6 of the entries, repeated:

{"compound": "Cc1cc(CNC(=O)c2cnoc2C)c(C)o1", "Inhibition": 15.99}
{"compound": "O=C(NCc1ccccc1CO)C1COc2ccccc21", "stereo": "centres undefined", "Inhibition": 6.25}
{"compound": "Cc1nnc(N2CCC(CN(C)C(C)C)CC2)c(C#N)c1C", "Inhibition": 7.639}
{"compound": "Cc1ccc2c(c1)SCC(=O)N2CC(=O)N1CCCC1c1cc(C)on1", "stereo": "centres undefined", "Inhibition": 2.41}
{"compound": "Cc1cc(C)cc(CNC(C)c2c(C)nn(C)c2C)c1", "stereo": "centres undefined", "Inhibition": 3.971}
{"compound": "COc1ccc2c(c1)CC(NCc1cccc(NC(C)=O)c1)CC2", "stereo": "centres undefined", "Inhibition": 13.35}

Source: ChEMBL document CHEMBL3988442, “University of Dundee, Small-Polar-MMV Screening Library” (2021).